Earlier results, collected in patent US7186842B2, “Polymorph of (1-benzyl-4-[(5,6-dimethoxy-1-indanone)-2-y1] methyl piperidine hydrochloride (Donepezil hydrochloride) and a process for producing thereof” (USV, Ltd., priority 2003, dated 2007).

In the case of COc1cc2c(cc1OC)C(=O)C(CC1CCN(Cc3ccccc3)CC1)C2.Cl (stereo not shown) [1-benzyl-4-[(5,6-dimethoxy-1-indanone)-2-yl] methyl piperidine hydrochloride], the “chemical stability on storage” value is listed as “chemically unstable on storage”.
